The text below walks through data of paper PMC11742385, “Selection and Characterization of a DNA Aptamer Recognizing High Mobility Group Box 1 Protein (HMGB1) and Enhancing Its Pro-inflammatory Activity”.

For at least one entry, the source does not settle the construct or the ends of the probe. No signal at the amounts used counts as a negative.

The subject of this data set is rhHMGB3. Kind of data set: microplate aptamer binding assay. The conditions noted are these: 1 mM Mg2+, 1 mM Ca2+, 5 nM aptamer; SHMCK: 20 mM Hepes, 120 mM NaCl, 5 mM KCl, 1 mM MgCl2, 1 mM CaCl2, pH 7.4, 37 C, 1 h; protein coated 2 pmol/well, 3% BSA block, PBST washes; commercial protein; folded or branched DNA.

Turning to “GGACAAGAATCACCGCTCTGGGTTTGGCGTCGGGCCTGGCGAAAGGTGGTTGTGCGGAGAGAGCGTACAGGAGGCATACAG [H-ap25]”, the binding result is on record as “no binding”.
